Record: PubChem BioAssay AID1224830 (NIAID, 2016)
Here is a random part of about 18,000 reagents tested. About 2,900 of all reagents (16%) were called active. 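Calls are made per well; low scores hint the gene aids the LPS response, high scores that it dampens it.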 Entries without a mark were called inactive. Repeated entries: four replicate wells of each siRNA pool. Reagent sequences are not shown.

Test: 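Genes whose knock-down alters the TNF-alpha reporter response to LPS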 (primary screen)
Cells: human THP-1 monocytic leukaemia cells, TNF dual-luciferase reporter clone, PMA-differentiated to macrophage-like cells
Knock-down reagent: siRNA pool against human genes, 50 nM
Time to read-out: LPS for 4 h, given about 3 days after siRNA transfection
Challenge: bacterial LPS (TLR4 ligand), 10 ng/ml
Read-out: 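Ratio of firefly to renilla light, scaled to the plate median and expressed as a robust z-score per replicate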
Reading the numbers: TNF reporter robust z-score: higher = stronger TNF reporter response to LPS
Rule for the call: 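Each well counts as active if its z-score is over 2.8 or under -1.5; controls are left without a call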

Knock-down of MSTN resulted in: TNF reporter robust z-score -0.58.
Depletion of MSTN came out at: TNF reporter robust z-score -0.28.
After knock-down of MSTN the results were TNF reporter robust z-score -0.72.
Knock-down of MSTN gave: TNF reporter robust z-score -0.13.
With knock-down of KIAA0408 the results were TNF reporter robust z-score -0.56.
For KIAA0408 the deposit lists TNF reporter robust z-score -0.25.
Depletion of KIAA0408 came out at: TNF reporter robust z-score -0.77.
Knock-down of KIAA0408 gave: TNF reporter robust z-score -1.36.
For HDHD3 the deposit lists TNF reporter robust z-score -1.2.
HDHD3 showed TNF reporter robust z-score 0.01.
With knock-down of HDHD3 the results were TNF reporter robust z-score -0.54.
HDHD3 showed TNF reporter robust z-score -0.71.
Depletion of AZIN1 gave: TNF reporter robust z-score 0.34.
AZIN1 scored TNF reporter robust z-score -0.31.
Depletion of AZIN1 came out at: TNF reporter robust z-score 0.28.
Silencing of AZIN1 resulted in: TNF reporter robust z-score 1.45.
Knock-down of PPP1R14A came out at: TNF reporter robust z-score 0.37.
Against PPP1R14A the deposit lists TNF reporter robust z-score 0.84.
For PPP1R14A the deposit lists TNF reporter robust z-score 0.08.
Depletion of PPP1R14A gave: TNF reporter robust z-score 0.28.
ZNF502 scored TNF reporter robust z-score -0.68.
ZNF502 gave TNF reporter robust z-score -0.47.
Knock-down of ZNF502 came out at: TNF reporter robust z-score -0.54.
For TERB2, the values are TNF reporter robust z-score -1.65 (active).
For TERB2 the deposit lists TNF reporter robust z-score -1.16.
TERB2 gave TNF reporter robust z-score -0.88.
With knock-down of TERB2 the results were TNF reporter robust z-score -1.74 (active).
Against VAMP4, the entry reads TNF reporter robust z-score -0.16.
After knock-down of VAMP4, the screen gave TNF reporter robust z-score 0.75.
After knock-down of VAMP4, the screen gave TNF reporter robust z-score 0.35.
VAMP4 gave TNF reporter robust z-score 0.31.
Silencing of HPF1 gave: TNF reporter robust z-score -0.8.
For HPF1, the values are TNF reporter robust z-score -1.
With knock-down of HPF1 the results were TNF reporter robust z-score -0.26.
After knock-down of HPF1, the screen gave TNF reporter robust z-score 0.07.

3 of these entries, reformatted:
target gene,TNF reporter robust z-score
KIAA0408,-0.25
KIAA0408,-0.77
KIAA0408,-1.36

More results follow:
Against IL17RE the deposit lists TNF reporter robust z-score -0.22.
Silencing of IL17RE gave: TNF reporter robust z-score 0.54.
Depletion of IL17RE gave: TNF reporter robust z-score 0.65.
Silencing of IL17RE gave: TNF reporter robust z-score 1.55.
For SCPEP1, the entry reads TNF reporter robust z-score 0.09.
With knock-down of SCPEP1, the record shows TNF reporter robust z-score -0.05.
Depletion of SCPEP1 came out at: TNF reporter robust z-score -0.17.
Depletion of SCPEP1 resulted in: TNF reporter robust z-score -0.52.
Knock-down of TNIP1 gave: TNF reporter robust z-score -2.05 (active).
Silencing of TNIP1 came out at: TNF reporter robust z-score -1.29.
With knock-down of TNIP1 the results were TNF reporter robust z-score -2.02 (active).
Silencing of TNIP1 came out at: TNF reporter robust z-score -1.24.
Knock-down of CTSS came out at: TNF reporter robust z-score 0.51.
Against CTSS, the values are TNF reporter robust z-score 0.15.
Depletion of CTSS gave: TNF reporter robust z-score -0.94.
For CTSS the deposit lists TNF reporter robust z-score -0.37.
Knock-down of MAMDC2 resulted in: TNF reporter robust z-score -0.88.
For MAMDC2 the deposit lists TNF reporter robust z-score -0.2.
Knock-down of MAMDC2 came out at: TNF reporter robust z-score -0.34.
Depletion of MAMDC2 came out at: TNF reporter robust z-score -0.94.
After knock-down of FIGLA, the record shows TNF reporter robust z-score 3.74 (active).
Silencing of FIGLA resulted in: TNF reporter robust z-score 3.13 (active).
For FIGLA the deposit lists TNF reporter robust z-score -0.18.
Knock-down of FIGLA came out at: TNF reporter robust z-score -0.25.
For ESS2 the deposit lists TNF reporter robust z-score -0.41.
After knock-down of ESS2, the screen gave TNF reporter robust z-score -0.13.
Against ESS2, the entry reads TNF reporter robust z-score -0.07.
With knock-down of ESS2, the screen gave TNF reporter robust z-score 0.21.
